Results reported in article PMC11323535.
These are yes or no findings as the source states them, for the method shown. Some results given as binding are weak or reduced against the parent protein; the word gives no strength.

How the values were obtained:
[1] = target: T1, full-length Siglec-14 expressed on CHO-K1 cells (human) (UniProt Q08ET2); assay: flow cytometry on cells; transiently transfected CHO-K1 cells; rNadA 200 µg/mL, 30 min, 37°C; mouse polyclonal anti-NadA serum and APC secondary antibody; only the binder purified
T1 sequence: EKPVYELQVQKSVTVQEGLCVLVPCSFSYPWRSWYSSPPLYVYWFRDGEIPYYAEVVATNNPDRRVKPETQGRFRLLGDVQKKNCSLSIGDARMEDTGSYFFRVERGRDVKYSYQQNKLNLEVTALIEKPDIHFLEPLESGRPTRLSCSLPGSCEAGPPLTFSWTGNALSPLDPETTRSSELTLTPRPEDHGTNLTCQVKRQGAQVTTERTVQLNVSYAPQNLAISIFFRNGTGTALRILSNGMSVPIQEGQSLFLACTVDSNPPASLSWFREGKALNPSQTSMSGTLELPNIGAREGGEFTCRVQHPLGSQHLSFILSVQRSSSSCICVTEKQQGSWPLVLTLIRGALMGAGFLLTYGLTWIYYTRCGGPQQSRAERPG

[2] = target: T2, full-length Siglec-5 expressed on CHO-K1 cells (human) (UniProt O15389); assay: as above
T2 sequence: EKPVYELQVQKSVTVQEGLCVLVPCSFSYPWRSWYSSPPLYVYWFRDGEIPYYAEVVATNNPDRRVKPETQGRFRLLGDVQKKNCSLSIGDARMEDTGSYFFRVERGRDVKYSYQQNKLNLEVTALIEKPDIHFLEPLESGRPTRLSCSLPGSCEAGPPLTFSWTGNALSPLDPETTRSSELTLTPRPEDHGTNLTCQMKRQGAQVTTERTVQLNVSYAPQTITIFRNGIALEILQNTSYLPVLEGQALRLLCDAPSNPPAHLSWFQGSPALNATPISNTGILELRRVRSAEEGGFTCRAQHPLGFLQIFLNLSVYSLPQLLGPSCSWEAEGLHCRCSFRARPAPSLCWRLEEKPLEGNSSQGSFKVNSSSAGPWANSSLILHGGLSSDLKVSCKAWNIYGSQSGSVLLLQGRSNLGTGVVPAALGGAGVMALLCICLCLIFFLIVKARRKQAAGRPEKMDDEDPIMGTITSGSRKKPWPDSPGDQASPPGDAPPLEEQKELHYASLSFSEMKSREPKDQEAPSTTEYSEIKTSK

recombinant soluble NadA (NadA_(24–350)) (from UniProt Q8KH85 24-350) (domain or fragment)
binding [1]: binds
binding [2]: binds
